For at least one entry, the source does not settle the construct or the ends of the probe. For part of these data: No signal at the amounts used counts as a negative. Protein sequences can lack the tags named with them.
What was measured:
Assay in all cases: activity in cells
[1] = target: T1, DpnI binding domain-VP64 (synR-VP64) (Streptococcus pneumoniae) (UniProt P0A459); conditions: no significant activation without writer; protein in cells; protein details: NLS, VP64; only the motif is given
T1 sequence: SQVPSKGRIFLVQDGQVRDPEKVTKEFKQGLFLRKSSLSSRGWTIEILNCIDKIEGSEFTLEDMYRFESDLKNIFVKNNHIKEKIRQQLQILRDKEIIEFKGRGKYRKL

[2] = target: T2, KRAB-DpnI binding domain (synR-KRAB) (Streptococcus pneumoniae) (UniProt P0A459); conditions: N6-methyladenine at A of GATC; silencing of full-length CMV reporter with synI; protein in cells; protein details: KRAB, NLS; only the motif is given
T2 sequence: T1 sequence

[3] = target: T3, HP1alpha CSD-DpnI binding domain (synR-HP1) (Streptococcus pneumoniae) (UniProt P0A459); conditions: N6-methyladenine at A of GATC; silencing of full-length CMV reporter with synI; protein in cells; protein details: HP1alpha chromo shadow domain, NLS; only the motif is given
T3 sequence: T1 sequence

Sequence	functional effect [1]	functional effect [2]	functional effect [3]
GATC (double strand) [unmethylated GATC sites of reporter (no writer)]	not active		
GATC (double strand) [adenine-methylated GATC sites of reporter]		active	active

Reference: patent US20180245075
